The whole screen tested about 53,000 sequences, of which about 3,700 (7%) were called active.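 Rule for the calls: active = gene knockdowns whose robust z-score for IL-1 alpha signal is at least 2 or at most -2, so actives lie on both sides; inactive = the rest.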 The list shows a part of the results.
Experiment: Components of the Cytosolic LPS Sensing Pathway: Gene Identification via Genome-wide siRNA Screen;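 note: robust z of the log signal after scaling to non-targeting control siRNA wells of the plate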
Details: RAW264.7 macrophages, IL-1a HTRF, actives lie on both sides, screened at 100 nM (by protocol), cells primed 5 h with Pam3CSK4 first
Method in brief: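 Cells (RAW264.7, 1×10^4 per well) were transfected with siRNA at 100 nM and cultured 48h at 37 degrees C. Pam3CSK4 was added for 5 hours; LipidA transfection followed for 24 hour. IL-1a was then measured by HTRF.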

Row | Sequence | z-score
1 | CCACAGAAUAAGACAAUAUTT against Fbxo34 | active: -3.03
2 | GGCCAACUGGAGAUAGAUATT against Tamm41 | inactive: 1.19
3 | GGUCAAGAGGGAAAACUUUTT against Ctps | inactive: 0.0558
4 | GGAAAGAGGAAUCAAGAAATT against Slc23a2 | inactive: -1
5 | GGCUUUCCAGAAGACAGAATT against Cyp2s1 | inactive: 0.469
6 | GGUCAAAAGUUCUGGACAGTT against Spin4 | active: 5.6
7 | GUGUCCUGAACACAGCCACTT against Olfr638 | inactive: 1.01
8 | GGACACUGUAAGUGUCAACTT against Rnf186 | inactive: 0.402
9 | GCUUAAGUGCAGGGACCUATT against Ninl | inactive: -1.16
10 | GGAUUUUUACAGAGACAUGTT against Actr6 | inactive: -0.821
11 | GGAGUGACAGUUUUUAUUCTT against Hoxd10 | inactive: -0.369
12 | GGACAAACUGGACUAUUAUTT against Galntl5 | inactive: 0.804
13 | GGAUGAGACCAUCUGCCAATT against Adra1a | inactive: 0.323
14 | GCCCAAGGAUGAACUGCAGTT against Olfr108 | inactive: 0.79
15 | GGGUAACAUGAAAGUGAUCTT against Mybbp1a | inactive: -0.972
16 | GGUGGAUGAAACUCAGUUUTT against Aldh2 | inactive: -0.836
17 | GGCGGAAUCACAUCACUUCTT against Gm5084 | inactive: -0.0725
18 | GCAGAACCGCAUCAUAUUCTT against Ucn | inactive: -0.682
19 | GCAUUGUCGUGUCUUCUCUTT against Tti1 | active: -2.13
20 | CCAAACAGGCUUUUUUCCUTT against Snx31 | inactive: -0.712
21 | GGUAACUUGAGAAACAUCCTT against Rtraf | inactive: 0.0666
22 | GGUGUAAAUGAGCCUUUUUTT against Gimap5 | inactive: -0.214
23 | GCCGCUAUGUUGAUGGACUTT against Zc3h11a | inactive: 1.02

Row | Sequence | z-score
24 | GGAAGAUUUUCUCCAUCUATT against Ttll8 | inactive: 1.1
25 | CCUAGUCCCUCUGUCUCUUTT against Kctd13 | inactive: -1.79
26 | GGAUCACUUUUAGUUUUCUTT against C230013L11Rik | inactive: -0.0242
27 | GGAGCUGAACUCAAUGGUATT against Hoxd3 | inactive: -1.02
28 | GGAUUCAAAGCUUCCUUUATT against Eras | inactive: 0.115
29 | GACCACAAUAUUGAGGAUCTT against Zfp119b | inactive: -0.329
30 | CCCGCCUAAUUCUAAAGUCTT against Aqp8 | inactive: 0.118
31 | GGAUCUACAACAUGGAAAUTT against Mrps21 | inactive: -0.37
32 | GGAACUUCGUCAUCAACAUTT against Tm2d3 | inactive: -0.575
33 | GGCCUUGUACUUACACAAGTT against Rspo1 | inactive: 0.398
34 | GCAUGAUAAGGCAGCCGUATT against Amelx | inactive: 0.333
35 | GCAAGGUAUUCCAUGCUCATT against Psg27 | inactive: -0.616
36 | GGAUCUGACACACAUGAUCTT against Med16 | active: 2.3
37 | CCGUGUGAUCAAUGUGAAUTT against Casq1 | inactive: 0.644
38 | GGUUUGUCAUUUCCUGCCCTT against Gimap3 | inactive: 1.83
39 | GCUAAUUUUUUGAUUGCCCTT against Krtap1-5 | inactive: 1.61
40 | GCCUAUCCGACAACUUAGUTT against Slc25a17 | inactive: 0.136
41 | GGUUGAAGUCACAAAAGAATT against Prkg1 | inactive: -0.619
42 | GGCAGAAAGUGAAGAGUUGTT against Kazald1 | inactive: -0.11
43 | GGACGAGGUGGAAAAGUAUTT against Tpm2 | inactive: -0.711
44 | CCAAUAACUCGAAACUGGCTT against Cdc16 | inactive: 0.628
45 | GCACAAGUCUAAACAGCUGTT against Fermt1 | inactive: 0.494
46 | CCUGCUUACGUACAAGACCTT against Tekt1 | inactive: -0.568

Row | Sequence | z-score
47 | GGAGAAAUUAGGAUUACCATT against Pcdhac2 | inactive: -0.666
48 | UCCUUGCUGUCCUAACCAUTT against Gpr119 | inactive: 1.64
49 | CCAACAUGAUUGAGUCUUCTT against Lrp5 | inactive: -0.351
50 | GGAAAUUCAGCCACAACUCTT against Htr4 | inactive: 0.463
51 | GGAAUACCUUUCAUCGAUUTT against Ampd2 | inactive: -0.0984
52 | CCCUCAACCUCCAACCACATT against Ceacam1 | active: -2.15
53 | GCCUGGCUAGAAAUGUGGUTT against Fpr3 | active: 3.19
54 | GCUCCAAAAGUCAAGACCGTT against Safb2 | inactive: -0.482
55 | GGCAACUUGAUUGUAAACUTT against Zic2 | inactive: 0.795
56 | GGGAUUUCUUAUCCUGAAATT against Erlin2 | inactive: 0.271
57 | CCGUGAUUUAUUUGGAGUGTT against Tpt1 | inactive: 0.218
58 | GGAAAGAAUUGAGAUCUAATT against Rhoq | inactive: 0.728
59 | CGAUAAAUAACUCAGCAUGTT against Epha6 | inactive: 0.647
60 | GGAUACAAAAAAUGAAGUCTT against Cbr3 | inactive: 0.226
61 | CGUCUUACACGGUUCAAAGTT against Tbc1d10a | inactive: 0.809
62 | GGCUUUUCCAUCGAUGAGUTT against F2rl1 | inactive: -1.08
63 | CGACUUUCUAAGUCUCAACTT against Hyal1 | inactive: 0.663
64 | CCAAACUUAAACAUGUUGUTT against Ddx21 | inactive: 0.364
65 | GGACAAGUACAAGAAGAAGTT against Rfxap | inactive: -0.267
66 | GGAUGUCCUGAAAGAAAAATT against H2-M9 | inactive: 0.633
67 | CGACAAGGGUUCCCUAGAATT against Nkd2 | inactive: -0.766
68 | GGAAUAAAUAACAUUUCCCTT against Parvg | inactive: 0.839

Taken from above:
z-score, CGUCUUACACGGUUCAAAGTT against Tbc1d10a is entered as inactive: 0.809
z-score, CGACUUUCUAAGUCUCAACTT against Hyal1 is entered as inactive: 0.663
z-score, GGAGAAAUUAGGAUUACCATT against Pcdhac2 is entered as inactive: -0.666
z-score, CCAAACUUAAACAUGUUGUTT against Ddx21 is entered as inactive: 0.364

Reference: PubChem BioAssay AID1508600 (Functional Genomics Laboratory (NCATS/FGL), 2020)
